Results reported in patent US10870889B2, “Immunoglobulin expression levels as biomarker for proteasome inhibitor response” (Onyx Therapeutics, Inc., priority 2013, dated 2020).
Some entries share one result that the patent states for a list of compounds.

Test system: U266
Experiment: RNA-Seq of multiple myeloma cell line U266 continuously exposed to bortezomib or carfilzomib for 24 hours
Assay type: cell-based
Settings: U266 cells, continuous exposure for 24 hours

SMILES | expression of IG genes lower following exposure
CC(C)C[C@H](NC(=O)[C@H](Cc1ccccc1)NC(=O)c1cnccn1)B(O)O [bortezomib] | 3- to 4 fold
CC(C)C[C@H](NC(=O)[C@H](CCc1ccccc1)NC(=O)CN1CCOCC1)C(=O)N[C@@H](Cc1ccccc1)C(=O)N[C@@H](CC(C)C)C(=O)[C@@]1(C)CO1 [carfilzomib] | 3- to 4 fold
